Measurements reported in patent US11180528B2 (priority 2018, dated 2021).
Entries after “also recorded” stand apart in the source; their conditions may differ. Read-outs that look alike come from different tables or passages of the source. At least one peptide structure holds a part that was inferred or is arguable (an end, a ring closure or a residue). Some entries repeat one wording, which the source may state once for all of them. Ends that are not written are not given here.

Assays:
[1] = test system: F. tularensis LVS; assay type: cell-based, Francisella tularensis subsp. holarctica
[2] = test system: F. tularensis LVS; set-up: species or system BALB/c mice; settings: mouse, in vivo
[3] = test system: F. tularensis LVS
[4] = test system: F. tularensis LVS; set-up: species or system Galleria mellonella; settings: in vivo
[5] = test system: F. tularensis LVS; settings: mouse, in vivo
[6] = test system: F. tularensis LVS LPS; assay type: binding, Francisella tularensis subsp. holarctica

Sequence | pore formation (change in RFU) [1] | bacterial burden in lungs [2] | bacterial burden in spleens and livers [2] | MIC / inhibitory activity in broth [3] | survival of infected larvae [4] [%] | disease onset (average health scores) [5] | disease signs compared to untreated group (health scores) [5] | efficacy without the prophylactic treatment [5] | severity of signs of disease (health scores) [5] | survival of infected mice [5] [%] | survival in infected mice ([5]; 5 mg/kg) | rescue / survival of infected mice ([5]; ip) | survival of infected mice ([5]; ip, 5 mg/kg) [%] | LPS binding [6]
KFRNWFSQHFKKFKQKLKNTFA [GATR-3] | do not show significant pore formation | significantly lower; also recorded: reduced | no significant difference; also recorded: not reduced | inactive | 80 | delays the time of disease onset from day 1 to day 3 | only slightly lessened | maintained its efficacy | lessens severity of signs | 50 | 50-60% | significantly rescued mice | 60 | 
KFRNWFSQHWKKWKQKLKNTWA [GATR-5] | significant pore formation |  |  | some inhibitory activity | 0 |  |  |  |  |  |  |  |  | 
KFRNWFSQHWRRWRQRLRNTWA [GATR-6] | do not show significant pore formation |  |  | some inhibitory activity | 30 | do not delay disease onset | slightly more severe | did not | slightly lessened | 10 |  | significantly rescued mice | 40 | bind this LPS in greater amounts
RWRNWWSQRWRRWRQRLRNTWA [GATR-7] | all peptides except GATR-7 demonstrate a significant change in RFU; also recorded: do not show significant pore formation |  |  | some inhibitory activity | 30 | do not delay disease onset |  |  | slightly lessened |  |  |  | 20 | bind this LPS in greater amounts
